Measurements as given in publication PMC11633528.
Results are given in words; binding and its absence hold for the method and conditions named. Binding seen in cells or lysates may run through a third protein. Binding calls can cover weak binding; strength is not graded here. Sequences can lack the tags named with a protein.

Molecular target: T1, HCP5‐132aa N‐terminal region (1‐66aa), Flag‐tagged truncation mutant (human) (UniProt Q6MZN7)
T1 sequence: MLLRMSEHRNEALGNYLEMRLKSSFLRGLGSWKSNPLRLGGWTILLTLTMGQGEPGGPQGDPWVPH
Assay: co-IP; series of truncated forms of ELAVL1 with HCP5‐132aa; cells not given

With “RRM2 domain of ELAVL1 (truncated form) (domain or fragment)” the binding was “binds”.
